# Measured values: PubChem BioAssay AID493014 (National Center for Advancing Translational Sciences (NCATS), 2011)
# The whole screen tested about 340,000 compounds, of which about 170 (0.05%) were called active. Inconclusive means that the source gave no clear call. Such entries were picked first, then a sample of the others. Calls follow the shape of the dose curve; as a rule, active = well fitted inhibition curve with a large enough effect in the signal ratio, with a control signal flat (not every such curve was filed as active); inconclusive = small, poorly fitted or top-dose-only effect, or effect the other way, or a change in a side signal; inactive = flat fitted curve, though single readings scatter; the % refers to the signal ratio. Potencies beside an inconclusive call are fits to weak or partial responses and may not hold up.
# Experiment: qHTS Assay to Find Inhibitors of Chronic Active B-Cell Receptor Signaling;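 as to activity change, negative = inhibition: plate controls were basal doxycycline-induced cells for no effect and cells given 10 µM MG132 for full effect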
# Details: ABC-DLBCL IkBa-CBG/CBR reporter, luminescence ratio (green luciferase fused to IkBa over red control in TMD8 lymphoma cells), 4 h; activity change, negative = inhibition: at 46.1 µM (top of the series)
# Outline: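 Compounds up to 46 uM were incubated four hours with TMD8 cells whose green CBG68 luciferase is fused to IkappaBalpha; red CBR luminescence normalised the signal, and concentration-effect curves were fitted to fusion, red and ratio data.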
# Potency is read from the fitted curve at half-maximal effect.
SMILES,Potency,"activity change, negative = inhibition"
O=S(=O)(NCc1cccnc1)c1ccc2c(c1)OCCO2,"inconclusive: 6.51 µM [falling, partial curve, poor fit]",
N#Cc1nc(-c2ccc(OCc3ccccc3)cc2)oc1NCc1ccco1,,inconclusive: 4.53%
Cc1cc(SCC(=O)NCc2ccc(Cl)cc2)nc(=O)[nH]1,,inactive
O=C(c1ccc2c(=O)n(Cc3ccccc3Cl)c(=S)[nH]c2c1)N1CCOCC1,,inactive
O=C(NC1CC1)c1sc2cc([N+](=O)[O-])ccc2c1Cl,,inconclusive: -0.544%
COc1ccc(CC(=O)c2ccc(OC)c(OC)c2)cc1,,inconclusive: 3.29%
COc1cc(/C=C2\SC(=Nc3c(C)n(C)n(-c4ccccc4)c3=O)NC2=O)ccc1O,"inconclusive: 16.4 µM [falling, partial curve, poor fit]",
Cc1ccc(C2OC34CCCCCC3C(C#N)(C(=N)O4)C2(C#N)C#N)cc1 (centres undefined),,inconclusive: -4.52%
COC(=O)c1sc(NC(=O)c2cc(C)on2)nc1C,"inconclusive: 20 µM [falling, partial curve]",
COc1ccc2cc(C(=O)N3CCN(c4ccccc4OC)CC3)[nH]c2c1,,inactive
COc1cccc(NC(=O)COC(=O)c2cc(S(=O)(=O)N3CCOCC3)ccc2C)c1,"inconclusive: 29.1 µM [falling, single point]",
Cc1cc(-c2nnc3n2N=C(c2ccc(F)cc2)CS3)n[nH]1,"inconclusive: 20 µM [falling, single point]",
Cc1ccsc1/C=N/n1c(C2CCCCC2)n[nH]c1=S,,inconclusive: 27.2%
CCN(C(=O)COC(=O)C1=COCCO1)c1c(N)n(Cc2ccccc2)c(=O)[nH]c1=O,,inactive
O=C(Nc1ccc(-c2cn3ccsc3n2)cc1)c1ccc(F)c(S(=O)(=O)N2CCOCC2)c1,"inconclusive: 29.1 µM [falling, single point]",
Cc1ccc(-c2nc(CS(=O)CC(=O)NCc3ccc(Cl)cc3)c(C)o2)cc1 (centres undefined),,inconclusive: -3.96%
CCN1C(=O)[C@H]2[C@@H](c3ccc(C)cc3)N3C(=O)N(c4ccccc4)C(=O)[C@@]3(CC)[C@H]2C1=O,,inactive
O=C(Nc1ccc2c(c1)OCO2)c1cccc(Cl)c1,"inconclusive: 23.1 µM [falling, single point]",
Cc1cc(NC(=O)c2ccco2)ccc1NC(=O)c1ccco1,,inconclusive: 14.8%
COc1ccc(C(C(=O)NC2CCCC2)N(C(=O)c2snc(C(N)=O)c2N)c2ccccc2OC)cc1OC (centres undefined),,inactive
CCCCN1/C(=C/c2ccc3ccccc3[n+]2CC)Sc2ccccc21,,inactive
CCCCc1nnc(NC(=O)CS(=O)(=O)Cc2ccccc2)s1,"inconclusive: 0.0651 µM [falling, full curve, poor fit]",
CC1CN(C(=S)Nc2ccc(Cl)cc2)CC(C)O1 (centres undefined),,inconclusive: 8.79%
O=C(NC1CCCCC1)C1CC(=O)N(c2cccc([N+](=O)[O-])c2)C1 (centres undefined),,inactive
COC(=O)c1cc(S(=O)(=O)N2CCN(c3ccc([N+](=O)[O-])cc3)CC2)c[nH]1,,inconclusive: 0.637%
CCOC(=O)c1ccc(NC(=O)CC2COc3ccccc3O2)cc1 (centres undefined),"inconclusive: 18.4 µM [rising, partial curve, poor fit]",
CS(=O)(=O)N1CCN(c2ccccc2NC(=O)c2ccc(Br)o2)CC1,,inactive

SMILES,Potency,"activity change, negative = inhibition"
Cc1cc(C)nc(NC(=O)C(c2ccccc2)c2ccccc2)n1,,inconclusive: 13.7%
Cc1c(C(=O)NCc2ccccn2)oc2ccc(Br)cc12,"inconclusive: 5.8 µM [rising, partial curve, poor fit]",
COc1ccc(CN2CCN(C(C)C(=O)N(C)Cc3cccc(F)c3)CC2)cc1OC (centres undefined),,inactive
Cc1cc(C(F)(F)F)n2ncc(-c3ccc(F)cc3)c2n1,,inconclusive: 8.4%
COc1ccc(CC(=O)OCC(=O)c2c[nH]c3ccccc23)cc1,,inconclusive: 2.74%
CC(OC(=O)c1ccncc1)C(=O)Nc1cc(S(=O)(=O)N2CCCCC2)ccc1Cl (centres undefined),,inconclusive: 8.55%
Nc1ccccc1S(=O)(=O)C(F)F,,inactive
CCCCn1nc2cc(C(=O)NCc3ccccc3)ccc2c1OCC,,inconclusive: 8.16%
O=S(=O)(NCc1csc(-c2cccs2)n1)c1ccccc1,,inconclusive: 20.1%
COc1ccc(NC(=O)C2CCN(S(=O)(=O)c3cccc(-c4noc(C)n4)c3)CC2)cc1OC,,inactive
CCOC(=O)c1oc2ccc(S(=O)(=O)n3nc(-c4ccc(C)cc4)cc3N)cc2c1C,,inactive
O=C(COC(=O)c1ccc2c(c1)S(=O)(=O)N=C1CCCCCN12)NCc1cccs1,,inconclusive: 2.21%
COCC(=O)Nc1cc(Cl)ccc1C(F)(F)F,,inconclusive: -0.396%
CCCCCOc1ccc(/C(C)=N/NC2=NCCN2)cc1,"inconclusive: 35.5 µM [falling, single point]",
Cn1nnc(NC(=O)c2ccc3ccccc3c2)n1,,inactive
CC1CCc2sc(-c3n[nH]c(=S)o3)cc2C1 (centres undefined),,inconclusive: -10.8%
CCCc1nc(SCC(=O)N2CCc3ccccc32)c2c(=O)n(C)c(=O)n(C)c2n1,,inconclusive: -1.89%
COC(=O)Cc1c(C)c2ccc(OCC(=O)N(C)C)cc2oc1=O,,inconclusive: 0.809%
O=[N+]([O-])c1ccc(C(=S)N2CCN(c3ccc(F)cc3)CC2)cc1,,inactive
COc1ccccc1OCCC(=O)OCC(=O)Nc1ccc(Br)cc1F,"inconclusive: 35.5 µM [falling, partial curve, poor fit]",
Cc1occc1-c1nnc(SCC(=O)N2CCOCC2)n1CC(C)C,"inconclusive: 4.61 µM [rising, partial curve, poor fit]",
CC(NC(=O)c1cc2c(s1)CCCC2)C(C)(C)C (centres undefined),,inconclusive: -0.424%
O=C(OC1CCOC1=O)c1ccccc1C(=O)c1ccc(Cl)c([N+](=O)[O-])c1 (centres undefined),,inconclusive: -0.877%
O=C(COc1ccc(S(=O)(=O)N2CCCC2)cc1Cl)NCc1ccccn1,,inconclusive: -0.946%
O=C(NCCC1=CCCCC1)C1CCCN(S(=O)(=O)c2ccccc2)C1 (centres undefined),,inconclusive: 0.301%
O=C(CCCC(=O)N/N=C\c1ccccn1)N/N=C\c1ccccn1,,inactive
O=C(c1cccc([N+](=O)[O-])c1)N1CCN(c2ccccn2)CC1,,inactive

# Copied from the list:
# activity change, negative = inhibition, Nc1ccccc1S(=O)(=O)C(F)F reads inactive
# activity change, negative = inhibition, CC(OC(=O)c1ccncc1)C(=O)Nc1cc(S(=O)(=O)N2CCCCC2)ccc1Cl (centres undefined) reads inconclusive: 8.55%
# activity change, negative = inhibition, COc1ccc2cc(C(=O)N3CCN(c4ccccc4OC)CC3)[nH]c2c1 reads inactive
# Potency, CCCCc1nnc(NC(=O)CS(=O)(=O)Cc2ccccc2)s1 reads inconclusive: 0.0651 µM [falling, full curve, poor fit]
# activity change, negative = inhibition, CCCCN1/C(=C/c2ccc3ccccc3[n+]2CC)Sc2ccccc21 reads inactive

# Continuation:

SMILES,Potency,"activity change, negative = inhibition"
CC1(C)CC(=O)C2=C(C1)Oc1nc3ccccc3cc1C2C(C#N)C#N (centres undefined),"inconclusive: 7.08 µM [falling, partial curve]",
COc1cccc(C(=O)N2CCN(Cc3cc(Br)ccc3OC)CC2)c1,,inconclusive: -16.6%
Cc1cc2c(NCc3ccccc3)ncnc2s1,"inconclusive: 6.31 µM [falling, partial curve, poor fit]",
CCCOc1ccc(C(CC(=O)O)NC(=O)c2sc3ccccc3c2Cl)cc1 (centres undefined),"inconclusive: 15.8 µM [falling, partial curve]",
CCC(CC)COC(=O)C1=C(C)NC(=O)NC1c1ccc(N(C)C)cc1 (centres undefined),,inconclusive: 0.11%
COc1ccc(OCCC(=O)Nc2nccs2)cc1,,inactive
O=C(N/C(=C\c1cccnc1)c1nc2ccccc2[nH]1)c1cccc(Br)c1,,inconclusive: -0.122%
COc1ccc(NC(=O)C(C)Sc2ccccc2)cc1 (centres undefined),,inactive
Cn1c(N)c(C(=O)COC(=O)Cc2cccs2)c(=O)n(C)c1=O,,inconclusive: 3.79%
Cc1ccc(NC(=O)CSc2nc(NS(=O)(=O)c3ccc(C)cc3)cc(=O)[nH]2)cc1,"inconclusive: 14.6 µM [falling, partial curve, poor fit]",
O=C1CC(C(=O)N2CCCc3ccccc32)CN1c1ccc(F)cc1 (centres undefined),,inconclusive: 6.49%
CC1(C)CC(=O)C(C=Nc2ccc(C(=O)c3ccccc3)cc2N=CC2=C(O)CC(C)(C)CC2=O)=C(O)C1,,inconclusive: -1.53%
O=C(Nc1cc(Cl)ccc1O)c1cc(-c2ccco2)on1,"inconclusive: 22.4 µM [falling, partial curve]",
Cc1nc(SCc2nc3ccc(C(F)(F)F)cc3[nH]2)c2oc3ccccc3c2n1,,inconclusive: -2.32%
CCCc1cc(=O)oc2cc(C)cc(OCC(=O)NC(Cc3ccc(Cl)cc3)C(=O)O)c12 (centres undefined),,inactive
CC(C)(CNC(=O)CCNC(=O)c1ccc(Br)cc1)N1CCOCC1,,inconclusive: 1.75%
COc1ccc(CCNC(=O)c2nn(C)c3c2CS(=O)(=O)c2ccccc2-3)c(OC)c1,,inactive
COc1ccc(C(=O)N2CC3(CC(c4cccc(NC(=O)COc5ccc(Cl)cc5)c4)=NO3)C[C@@H]2C(N)=O)cc1 (some centres undefined),"inconclusive: 11.2 µM [falling, single point]",
CCN(CC)CC(C)(C)COC(=O)c1oc2ccccc2c1C,,inconclusive: 11.1%
COC(=O)c1c(NC(=S)NN2CCN(C)CC2)sc2c1CCC(C)C2 (centres undefined),"inconclusive: 35.5 µM [falling, single point]",
CC(=O)Nc1ccc(NC(=O)C(C)OC(=O)c2ccc(C)s2)cc1 (centres undefined),,inconclusive: 0.253%
CCCCN(C(=O)c1cnccn1)c1c(N)n(CCC)c(=O)[nH]c1=O,,inconclusive: 1.85%
Oc1ccc2ccccc2c1CNn1cnnc1,"inconclusive: 29.1 µM [rising, single point]",
NC(=O)NC(=O)C(c1ccccc1)N1CCN(S(=O)(=O)Cc2ccccc2)CC1 (centres undefined),,inconclusive: 2.22%
CCOC(=O)c1sc2nc(SCC(=O)N(CC)CC)n(CCCN3CCCC3=O)c(=O)c2c1C,"inconclusive: 20 µM [rising, single point]",
